The list does not hold the whole screen: it gathers tests that were run many times, whatever their T/C, doses with no T/C, and many T/C values between a quarter and a half above the control. Other doses and runs of a compound stand elsewhere. T/C gives the treated animals as a percentage of the vehicle group. Some entries give survivors of the animals treated and no T/C: the source files T/C as zero there, which appears to mark a toxic dose or a test without result, not a measured value. Some survivor counts are full or nearly so, which does not show that the dose was tolerated: the source hardly ever lists a survival T/C far under the control, and the zero likely stands for such cases as well. Survivors were counted at the toxicity check, usually on the fifth day, unless a day is given; later deaths do not show. Schedule codes are those of the source, read here as Q, the interval in days (D) or hours (H), X, the number of doses. Some schedules carry Z or #; the key to these is not given. Some entries were tested several times; their values stand side by side, smallest first. For survival time, this PubChem deposit counts one and a half times the control or more as active, and values a quarter to a half above the control carry no call in these data; other NCI protocols may use other cut-offs.
System: P335 leukemia ip, BDF1 mice, survival T/C %
Experiment: NCI In Vivo Anticancer Drug Screen. Data for tumor model P335 Leukemia (intraperitoneal) in B6D2F1 (BDF1) mice
Conditions: T/C endpoint: mean survival time, schedule: Q01DX Z (ip), higher T/C = longer survival
Method: The antitumor activity of compounds was measured in mice bearing transplantable tumors. Survival or tumor size were measured and the results are expressed as the measurement made in the treated group (T) divided by the measurement made in the vehicle treated control group (C). The tumor model used in this assay is P335 Leukemia (intraperitoneal) in B6D2F1 (BDF1) mice

[1] = dose: 6.25 mg/kg/injection, vehicle: carboxymethylcellulose (CMC)
[2] = dose: 12.5 mg/kg/injection, vehicle: carboxymethylcellulose (CMC)
[3] = dose: 50.0 mg/kg/injection, vehicle: carboxymethylcellulose (CMC)
[4] = dose: 100.0 mg/kg/injection, vehicle: carboxymethylcellulose (CMC)
[5] = dose: 62.5 mg/kg/injection, vehicle: carboxymethylcellulose (CMC)
[6] = dose: 125.0 mg/kg/injection, vehicle: carboxymethylcellulose (CMC)
[7] = dose: 250.0 mg/kg/injection, vehicle: carboxymethylcellulose (CMC)
[8] = dose: 500.0 micrograms/kg/injection, vehicle: saline

Compound: Cc1cc(N(CCCl)CCCl)ccc1N=Nc1ccccc1C(=O)O
- survivor count (dose: 0.12 mg/kg/injection, vehicle: carboxymethylcellulose (CMC)): 6 of 6
- survivor count (dose: 0.23 mg/kg/injection, vehicle: carboxymethylcellulose (CMC)): 6 of 6
- survivor count (dose: 0.47 mg/kg/injection, vehicle: carboxymethylcellulose (CMC)): 6 of 6
- survivor count (dose: 1.87 mg/kg/injection, vehicle: carboxymethylcellulose (CMC)): 5 of 6
- survivor count (dose: 3.75 mg/kg/injection, vehicle: carboxymethylcellulose (CMC)): 5 of 6
- survivor count (dose: 7.5 mg/kg/injection, vehicle: carboxymethylcellulose (CMC)): 3 of 6 and 5 of 6
- survivor count (dose: 15.0 mg/kg/injection, vehicle: carboxymethylcellulose (CMC)): 6 of 6
- survivor count (dose: 30.0 mg/kg/injection, vehicle: carboxymethylcellulose (CMC)): 6 of 6
- survivor count (dose: 60.0 mg/kg/injection, vehicle: carboxymethylcellulose (CMC)): 5 of 6

Compound: CCCCn1cnc2c(=S)nc[nH]c21
- survivor count (dose: 0.4 mg/kg/injection, vehicle: carboxymethylcellulose (CMC)): 6 of 6
- survivor count (dose: 0.8 mg/kg/injection, vehicle: carboxymethylcellulose (CMC)): 6 of 6
- survivor count (dose: 1.6 mg/kg/injection, vehicle: carboxymethylcellulose (CMC)): 6 of 6
- survivor count (dose: 3.1 mg/kg/injection, vehicle: carboxymethylcellulose (CMC)): 6 of 6
- survivor count [1]: 6 of 6
- survivor count [2]: 6 of 6
- survivor count (dose: 25.0 mg/kg/injection, vehicle: carboxymethylcellulose (CMC)): 6 of 6
- survivor count [3]: 6 of 6
- survivor count [4]: 6 of 6
- survivor count (dose: 200.0 mg/kg/injection, vehicle: carboxymethylcellulose (CMC)): 1 of 6

Compound: c1ccc(CNc2ncnc3[nH]ncc23)cc1
- survivor count (dose: 4.0 mg/kg/injection, vehicle: carboxymethylcellulose (CMC)): 6 of 6
- survivor count (dose: 8.0 mg/kg/injection, vehicle: carboxymethylcellulose (CMC)): 6 of 6
- survivor count (dose: 16.0 mg/kg/injection, vehicle: carboxymethylcellulose (CMC)): 6 of 6
- survivor count [5]: 3 of 6
- survivor count [6]: 0 of 6
- survivor count [7]: 0 of 6

Compound: C1CN1c1nc(N2CC2)nc(N2CC2)n1
- survivor count (dose: 3.9 micrograms/kg/injection, vehicle: saline): 6 of 6
- survivor count (dose: 15.7 micrograms/kg/injection, vehicle: saline): 6 of 6
- survivor count (dose: 62.5 micrograms/kg/injection, vehicle: saline): 1 of 6
- survivor count [8]: 0 of 6

Compound: CCn1cnc2c(=S)nc[nH]c21
- survivor count (dose: 3.9 mg/kg/injection, vehicle: carboxymethylcellulose (CMC)): 6 of 6
- survivor count (dose: 7.8 mg/kg/injection, vehicle: carboxymethylcellulose (CMC)): 6 of 6
- survivor count (dose: 31.2 mg/kg/injection, vehicle: carboxymethylcellulose (CMC)): 6 of 6
- survivor count (dose: 31.25 mg/kg/injection, vehicle: carboxymethylcellulose (CMC)): 6 of 6
- survivor count [5]: 5 of 6
- survivor count [6]: 3 of 6
- survivor count [7]: 0 of 6

Compound: CN(Cc1cnc2nc(N)nc(N)c2n1)c1c(Cl)cc(C(=O)NC(CCC(=O)O)C(=O)O)cc1Cl (stereo unspecified)
- T/C [1]: 126 % of control
- T/C [2]: 132 % of control
- survivor count [2]: 6 of 6
- T/C [3]: 134 and 147 % of control
- survivor count [4]: 4 of 6

Compound: COc1cc2c(c(OC)c1OC)-c1ccc(OC)c(=O)cc1[C@@H](NC(C)=O)CC2
- survivor count (dose: 0.06 mg/kg/injection, vehicle: saline): 2 of 6
- survivor count (dose: 0.12 mg/kg/injection, vehicle: saline): 0 of 6
- survivor count (dose: 0.25 mg/kg/injection, vehicle: saline): 0 of 6
- survivor count (dose: 0.5 mg/kg/injection, vehicle: saline): 0 of 6
- survivor count [8]: 6 of 6

From PubChem BioAssay AID224 (DTP/NCI, 2004)
